A short description of this data set: general procedure: solution-phase peptide synthesis; DCC/HOBt; OTcp or OOBt active esters with HOBt; azide coupling (tert.-butyl nitr). As to conditions: 2 HCl or diacetate.

Ends that are not written are not given here.

Consider EHWSYG-OH, for which the step yield entry (coupling step, calculated on H-Trp-Ser-Tyr(Etoc)-Gly-OEt) was “ca. 10%”.
For the setting “coupling step, corrected for peptide content 78.4%”, “Glu-His-Trp-Ser-Tyr-Gly-Cys(Bu^t)-Arg-Pro-NH-C2 H5 -diacetate” yielded a step yield of 30% yield.
Turning to “Glu-His-Trp-Ser-Tyr-Gly-Lys(Boc)-Arg-Pro-Gly-NH2”, under “coupling step”, the step yield is 23%.
For “H-D-Ala-Lys(Boc)-Arg-Pro-NH-C2 H5 . 2 HCl”, under “coupling step”, the difficulty met entry is “Since the substance was strongly contaminated”. For the same substance, under “coupling step, calculated on the H-Lys(Boc)-Arg-Pro-NH-C2 H5 . 2 HCl”, the step yield is listed as 45%.
Turning to “H-D-Leu-Cys(Bu^t)-Arg-Pro-NH-C2 H5 -diacetate”, under “coupling step”, the difficulty met entry was “The compound was strongly contaminated”. This substance returned a step yield (coupling step, run 1) of 40%.
In the case of “H-D-Leu-Ser(Bu^t)-Arg-Pro-cyclopropylamide . 2 HCl”, the step yield (coupling step, calculated on Z-D-Leu-OTcp) is recorded as 76%.
On to H-Lys(Boc)-Arg-Pro-Gly-NH2 . 2HCl, for which the difficulty met entry (coupling step) is listed as “the substance was not homogeneous with regard to thin layer chromatography”.
In the case of “H-Ser-Tyr-D-Ala-Cys(Bu^t)-Arg-Pro-NH-C2 H5 -diacetate”, the step yield (coupling step, calculated on Z-Ser-Tyr(Bzl)--OH) was 58%.
In the case of “H-Ser-Tyr-D-Ala-Lys(Boc)-Arg-Pro-NH-C2 H5 . 2 HCl”, for the setting “coupling step”, the difficulty met result is listed as “not homogeneous with regard to thin layer chromatography (contaminated by three by-products)”. For the setting “coupling step, calculated on Z-Ser-Tyr(Bzl)-OOBt”, the step yield is listed as 76%.
H-Trp-Ser-Tyr(Etoc)-Gly-OEt.HCl returned a step yield (late stage modification step) of 97%.
“Z-Ser-Tyr(Bzl)-Gly-Cys(Bu^t)-Arg-Pro-NH-C2 H5” showed a step yield (coupling step) of 91%.
Still for that read-out and setting: for Z-Trp-Ser-Tyr(Etoc)-Gly-OEt the value was 76%.

Source of the values: patent US4003884 (dated 1977).
